# Measured data: PubChem BioAssay AID1508597 (Cure First, 2020)
# Test: 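Knock-downs altering ovarian cancer cell survival with or without PARP inhibitor rucaparib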 (primary screen)
# Cell system: human ovarian carcinoma lines grown from tumours: OCI-P5x (papillary serous) and OCI-C5x (clear cell)
# Knock-down reagent: siRNA pool against human genes, 1.25 pmol siRNA per well
# Timing: 72 h or 96 h, depending on the cell culture
# Challenge: rucaparib 20 µM (about IC30) or vehicle, present until read-out
# Rucaparib or vehicle: Rucaparib
# Cell line: OCI-C5x (clear cell)
# Measurement: 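ATP luminescence measured at 72 or 96 h according to the culture, then normalised and expressed as percent viability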
# Direction: viability, normalised: higher = more viable cells remaining
# Rule for the call: 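Active when normalised viability falls below 80 percent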
# Meaning of the calls: active = viability under 80%; inactive = viability 80% or more
# Shown is a random part of the about 2,100 reagents, in one setting of the screen. 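Calls flag viability under 80% in either arm, not effects specific to rucaparib; the reference for percent is not stated.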 A number with no mark means an inactive call. Some reagents were tested in more than one well and are listed for each. Reagent sequences are not shown. Not given: the 100% reference.
Gene,technical replicate,"viability, normalised (%)"
PHF1,1,56.9 (active)
PHF1,2,35.2 (active)
PHF1,3,39.5 (active)
NANOG,1,50.8 (active)
NANOG,2,37.4 (active)
NANOG,3,55.1 (active)
IFNAR1,1,48.8 (active)
IFNAR1,2,48.1 (active)
IFNAR1,3,45.5 (active)
MST1R,1,28.9 (active)
MST1R,2,47.7 (active)
MST1R,3,37.5 (active)
RPH3A,1,47.2 (active)
RPH3A,2,35.2 (active)
RPH3A,3,43.1 (active)
SMUG1,1,55.7 (active)
SMUG1,2,56.7 (active)
SMUG1,3,37.7 (active)
RAD51,1,55.2 (active)
RAD51,2,51.8 (active)
RAD51,3,59.3 (active)
SMARCAD1,1,47 (active)
SMARCAD1,2,42.7 (active)
SMARCAD1,3,36.5 (active)
BCL10,1,40.2 (active)
BCL10,2,46.9 (active)
BCL10,3,41.1 (active)
MED14,1,37.2 (active)
MED14,2,43.5 (active)
MED14,3,54.2 (active)
CLDN7,1,49.2 (active)
CLDN7,2,46.6 (active)
CLDN7,3,37.7 (active)

In a second layout: 12 of the entries above.
{"Gene": "MST1R", "technical replicate": "2", "viability, normalised (%)": "47.7 (active)"}
{"Gene": "MST1R", "technical replicate": "3", "viability, normalised (%)": "37.5 (active)"}
{"Gene": "RPH3A", "technical replicate": "1", "viability, normalised (%)": "47.2 (active)"}
{"Gene": "RPH3A", "technical replicate": "2", "viability, normalised (%)": "35.2 (active)"}
{"Gene": "RPH3A", "technical replicate": "3", "viability, normalised (%)": "43.1 (active)"}
{"Gene": "SMUG1", "technical replicate": "1", "viability, normalised (%)": "55.7 (active)"}
{"Gene": "SMUG1", "technical replicate": "2", "viability, normalised (%)": "56.7 (active)"}
{"Gene": "SMUG1", "technical replicate": "3", "viability, normalised (%)": "37.7 (active)"}
{"Gene": "RAD51", "technical replicate": "1", "viability, normalised (%)": "55.2 (active)"}
{"Gene": "RAD51", "technical replicate": "2", "viability, normalised (%)": "51.8 (active)"}
{"Gene": "RAD51", "technical replicate": "3", "viability, normalised (%)": "59.3 (active)"}
{"Gene": "SMARCAD1", "technical replicate": "1", "viability, normalised (%)": "47 (active)"}

The listing continues:
Gene,technical replicate,"viability, normalised (%)"
STK32A,1,45.4 (active)
STK32A,2,56.4 (active)
STK32A,3,48.7 (active)
ZAP70,1,56.4 (active)
ZAP70,2,67.3 (active)
ZAP70,3,84.3
PINK1,1,60.1 (active)
PINK1,2,54.8 (active)
PINK1,3,78.5 (active)
PRKCE,1,47.5 (active)
PRKCE,2,56.4 (active)
PRKCE,3,60.4 (active)
RBM14,1,45.8 (active)
RBM14,2,40.4 (active)
RBM14,3,56 (active)
WEE2,1,68.4 (active)
WEE2,1,51.3 (active)
WEE2,2,52.4 (active)
WEE2,2,48 (active)
WEE2,3,58.9 (active)
WEE2,3,66.3 (active)
SETD7,1,43.1 (active)
SETD7,2,47.8 (active)
SETD7,3,35.3 (active)
DAPK2,1,62.9 (active)
DAPK2,2,53 (active)
DAPK2,3,81.9
TYK2,1,62.2 (active)
TYK2,2,60.7 (active)
TYK2,3,68.1 (active)
PHF23,1,49.8 (active)
PHF23,2,46.6 (active)
PHF23,3,39.3 (active)
CFAP46,1,52.9 (active)
CFAP46,2,78.7 (active)
CFAP46,3,72.9 (active)
XRCC4,1,55.8 (active)
XRCC4,2,69.4 (active)
XRCC4,3,73.1 (active)
ALPK3,1,42.2 (active)
ALPK3,2,31.8 (active)
ALPK3,3,37.9 (active)
